Results taken from PubChem BioAssay AID2551 (National Center for Advancing Translational Sciences (NCATS), 2010).
About 17,000 (5.5%) of roughly 310,000 compounds were called active. Inconclusive means that the source gave no clear call. Such entries were picked first, then a sample of the others. The call rests on the fitted dose curve; in most records, active means well fitted inhibition curve with a large enough effect; inconclusive means small, poorly fitted or top-dose-only effect, or effect the other way; inactive means no such curve, though single readings can be large or run the other way. A potency beside an inconclusive call is a rough fit, not a confirmed value.

Amino acid sequences for entries named in this document (tags omitted). A change or cut given only in a name is not applied to a line headed by its entry.
UniProt P51450: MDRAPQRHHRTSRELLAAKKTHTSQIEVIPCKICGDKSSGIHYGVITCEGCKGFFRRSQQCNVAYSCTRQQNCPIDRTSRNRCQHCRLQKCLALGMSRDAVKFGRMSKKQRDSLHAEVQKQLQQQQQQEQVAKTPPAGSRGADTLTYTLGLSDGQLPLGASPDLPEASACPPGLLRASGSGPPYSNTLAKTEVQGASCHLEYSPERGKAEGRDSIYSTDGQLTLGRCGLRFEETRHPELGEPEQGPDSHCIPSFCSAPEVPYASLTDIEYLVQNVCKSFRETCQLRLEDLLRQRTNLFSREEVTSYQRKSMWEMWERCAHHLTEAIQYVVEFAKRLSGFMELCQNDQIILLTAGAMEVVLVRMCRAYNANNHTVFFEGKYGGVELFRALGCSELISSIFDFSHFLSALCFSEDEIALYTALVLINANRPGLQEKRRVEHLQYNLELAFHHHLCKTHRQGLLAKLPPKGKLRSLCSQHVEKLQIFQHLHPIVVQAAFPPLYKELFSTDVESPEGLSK

target: Nuclear receptor ROR-gamma (Mus musculus) (UniProt P51450); experiment: qHTS for inhibitors of ROR gamma transcriptional activity; settings: Drosophila S2 Gal4-RORgamma UAS-luciferase reporter, 20 h; activity change, negative = inhibition: at 53.6 µM (top of the series); further: nearly all actives have a fitted effect of over 60% in size
How it was run: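 Compounds are pin-transferred onto Drosophila Schneider cells expressing a copper-inducible Gal4–ROR gamma transactivation domain fusion. After 1 hr, copper sulfate is added to 700 uM final; luciferase is read 20 hr later.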
On the % scale 0 is the no-effect control and ±100 the full control effect; potency means the concentration at half of the fitted maximal effect.

Potency, active:
Cn1c(=O)[nH]c(=O)c2c1nc([N+](=O)[O-])n2Cc1ccccc1 3.98 µM
Cc1ccc(NC(=S)Nc2ccc3cn[nH]c3c2)cc1C 12.6 µM
CN(C)c1ccc(-c2nc3ccccn3c2/N=C/c2ccc(Br)cc2)cc1 7.08 µM
CN(C)CCCn1c(=S)[nH]c2sc3c(c2c1=O)CCCC3 14.1 µM
CCCCS/C(N)=N/N=C/c1ccccc1O 0.631 µM
S=c1[nH]ccn1-c1cccc(Cl)c1 12.6 µM
CCOc1ccc(/C=N/Nc2ccc(Cl)nn2)c(O)c1 1.58 µM
Clc1ccc(C2C3=C(Nc4ncnn42)c2ccccc2CC3)cc1 (stereo not given) 14.1 µM
Cn1c(=O)[nH]c(=O)c2c1nc(N1CCCCC1)n2C/C=N/NC(=O)c1cc(Br)ccc1O 12.6 µM
Cc1ccc(SC(=O)c2c([N+](=O)[O-])c(C)nn2C)cc1 3.98 µM
Cc1ccccc1CSCC(=O)N/N=C/c1cccs1 17.8 µM
CCc1ccc2oc(-c3cccc(N)c3)nc2c1 10 µM
C=CCN=C1NN=C(c2cc(C)n(CC=C)c2C)CS1 11.2 µM
CC(=O)c1c(N2CCN(C)CC2)[nH]c(-c2ccccc2)nc1=S 10 µM

Potency, inconclusive:
Cc1cccnc1NC(=O)Nc1ccc(Cl)cc1 10 µM [activator, partial curve]
COc1ccc(C[C@H]2CN3C(=NC[C@@H]3Cc3ccccc3)N2CCNC(=O)CCC2CCCCC2)cc1 14.1 µM [inhibitor, single point]
Cc1c(C)c2ccc(OCc3ccc(C(=O)O)o3)c(C)c2oc1=O 14.1 µM [inhibitor, single point]
Cc1ccccc1-c1nnc(SCc2ccccc2)o1 3.55 µM [activator, partial curve]
O=c1cc(-c2ccccc2Cl)oc2c([N+](=O)[O-])c(O)cc(O)c12 11.2 µM [activator, single point]
COc1ccc(-c2csc3ncnc(N4CCN(c5ccccc5O)CC4)c23)cc1 10 µM [activator, partial curve]
C=C(C)c1cccc(C(C)(C)NC(=O)Nc2cccnc2)c1 35.5 µM [activator, single point]
COc1ccccc1NC(=O)c1ccc(N)cc1 7.94 µM [activator, partial curve]
Oc1ccc(F)cc1-c1cc(-c2ccc3c(c2)OCCO3)n[nH]1 35.5 µM [inhibitor, single point]
CCOc1ccc(S(=O)(=O)Nc2ccc(OC)nc2)cc1 8.91 µM [activator, partial curve]
Cc1ccccc1OC/C(O)=C(\C#N)c1nc2ccccc2[nH]1 10 µM [inhibitor, partial curve, poor fit]
COc1ccc(OC)c(S(=O)(=O)N2c3cc(F)ccc3CCC2C)c1 (stereo not given) 5.01 µM [inhibitor, partial curve]
COC(=O)c1sc(NC(=O)/C=C/c2ccccc2Cl)nc1C 0.398 µM [inhibitor, full curve]
CC1CCC(NC(=O)COc2ccc(C(=O)c3ccccc3)cc2)CC1 (stereo not given) 35.5 µM [activator, single point]
O=C(Cn1cnc2ccccc21)N/N=C/C(Br)=C/c1ccccc1 2.82 µM [inhibitor, single point]
CC(C)CC(=O)N1CCN(c2ccc([N+](=O)[O-])cc2Cl)CC1 11.2 µM [activator, partial curve]
NNC(=S)Nc1ccc(S(=O)(=O)N2CCOCC2)cc1 28.2 µM [inhibitor, single point]
CCOc1cc(/C=C2/C(=O)ON=C2C)cc(Br)c1O 12.6 µM [inhibitor, single point]
NS(=O)(=O)c1ccc(NC(=S)N2CCN(c3ccc(Cl)c(Cl)c3)CC2)cc1 3.55 µM [activator, single point]
O=C(CCSc1ccc(Cl)c(Cl)c1)NC12CC3CC(CC(C3)C1)C2 5.62 µM [activator, partial curve]
COC(=O)[C@@H]1C[C@@]1(C)[C@@H](NC(=O)OCc1ccccc1)c1ccccc1 10 µM [activator, partial curve]
Cc1ccc(-c2cc(C(=O)N/N=C/c3c(C)nn(-c4ccccc4)c3C)[nH]n2)cc1 5.01 µM [activator, full curve]
CCOc1ccccc1NC(=O)N1CCc2ccccc2C1 0.0447 µM [inhibitor, full curve, poor fit]
S=C(NCCCNC(=S)Nc1ccccc1)Nc1ccccc1 12.6 µM [inhibitor, single point]
Cn1nc([N+](=O)[O-])nc1Sc1ccc(C(C)(C)C)cc1 14.1 µM [activator, single point]
Cc1ccc(CNC(=O)C23CN(Cc4ccccc4)CC2C(c2ccc([N+](=O)[O-])cc2)=NO3)cc1 (stereo not given) 1.26 µM [activator, full curve]
S=C(NCc1ccccc1)NCc1ccccn1 12.6 µM [inhibitor, partial curve]
CN1c2ccsc2/C(=N/Nc2ccc(F)cc2)CS1(=O)=O 31.6 µM [inhibitor, single point]
C(=C\c1ccco1)/C1=NN(c2ccccc2)C(c2ccco2)C1 (stereo not given) 14.1 µM [inhibitor, single point]
CCOc1c2ccc(C(=O)NCC34CC5CC(CC(C5)C3)C4)cc2nn1CC 15.8 µM [inhibitor, single point]
Cc1cc2c(c(=O)o1)[C@@H](O)[C@H]1O[C@@H]1C2=O 0.708 µM [inhibitor, partial curve]
Cc1ccc(-n2nc(C)c(/C=N/NC(=O)c3cccs3)c2Cl)cc1 2.51 µM [activator, partial curve]
COC(=O)/C(=C/c1cccnc1)NC(=O)c1ccccc1 7.94 µM [inhibitor, partial curve]
COc1cccc(Cn2c(=O)c(-c3ccc(Cl)cc3)nc3cnc(N4CCNCC4)nc32)c1 35.5 µM [inhibitor, single point]
CCc1cc(-c2oncc2-c2ccc(OC)cc2)c(O)cc1OC 14.1 µM [inhibitor, single point]
COCCN(C(=O)C1CCC1)c1nnc(-c2cccnc2)s1 20 µM [activator, single point]
Cc1ccc2nc(Nc3ccccc3)c(/C=N/O)c(=O)n2c1 3.16 µM [activator, full curve]

18 entries from above, arranged by molecular weight, rising:
Potency, inconclusive:
Cc1cc2c(c(=O)o1)[C@@H](O)[C@H]1O[C@@H]1C2=O 0.708 µM [inhibitor, partial curve]
COc1ccccc1NC(=O)c1ccc(N)cc1 7.94 µM [activator, partial curve]
COC(=O)/C(=C/c1cccnc1)NC(=O)c1ccccc1 7.94 µM [inhibitor, partial curve]
Cn1nc([N+](=O)[O-])nc1Sc1ccc(C(C)(C)C)cc1 14.1 µM [activator, single point]
CCOc1ccc(S(=O)(=O)Nc2ccc(OC)nc2)cc1 8.91 µM [activator, partial curve]
Oc1ccc(F)cc1-c1cc(-c2ccc3c(c2)OCCO3)n[nH]1 35.5 µM [inhibitor, single point]
CN1c2ccsc2/C(=N/Nc2ccc(F)cc2)CS1(=O)=O 31.6 µM [inhibitor, single point]
CC(C)CC(=O)N1CCN(c2ccc([N+](=O)[O-])cc2Cl)CC1 11.2 µM [activator, partial curve]
Cc1c(C)c2ccc(OCc3ccc(C(=O)O)o3)c(C)c2oc1=O 14.1 µM [inhibitor, single point]
COC(=O)c1sc(NC(=O)/C=C/c2ccccc2Cl)nc1C 0.398 µM [inhibitor, full curve]
CC1CCC(NC(=O)COc2ccc(C(=O)c3ccccc3)cc2)CC1 (stereo not given) 35.5 µM [activator, single point]
Cc1ccc(-n2nc(C)c(/C=N/NC(=O)c3cccs3)c2Cl)cc1 2.51 µM [activator, partial curve]
COc1ccc(OC)c(S(=O)(=O)N2c3cc(F)ccc3CCC2C)c1 (stereo not given) 5.01 µM [inhibitor, partial curve]
CCOc1c2ccc(C(=O)NCC34CC5CC(CC(C5)C3)C4)cc2nn1CC 15.8 µM [inhibitor, single point]
O=C(Cn1cnc2ccccc21)N/N=C/C(Br)=C/c1ccccc1 2.82 µM [inhibitor, single point]
O=C(CCSc1ccc(Cl)c(Cl)c1)NC12CC3CC(CC(C3)C1)C2 5.62 µM [activator, partial curve]
COc1cccc(Cn2c(=O)c(-c3ccc(Cl)cc3)nc3cnc(N4CCNCC4)nc32)c1 35.5 µM [inhibitor, single point]
Cc1ccc(CNC(=O)C23CN(Cc4ccccc4)CC2C(c2ccc([N+](=O)[O-])cc2)=NO3)cc1 (stereo not given) 1.26 µM [activator, full curve]

Next part:

Activity change, negative = inhibition, inactive:
NCC(=O)N[C@@H](CCCN=C(N)N)C(=O)NCC(=O)N[C@@H](CC(=O)O)C(=O)N[C@@H](CC(N)=O)C(=O)N1CC[C@@H](C(=O)O)C1 -0.72%
COc1ccc(N2CCCn3c2nc2c3c(=O)n(CCc3ccccc3)c(=O)n2C)cc1 -18.7%
COC(CNC(=O)CCc1c(C)nc2c(c(C)nn2-c2ccc(C)cc2)c1C)OC 0.117%
COc1ccc(Br)cc1CN(C)C(C)C(=O)Nc1cccc(C(C)=O)c1 (stereo not given) 38.5%
C=CCn1nnnc1SCC(=O)Nc1cccc(C(F)(F)F)c1 -0.102%
COc1ccc(S(=O)(=O)N2CCN(c3ccccc3)CC2)cc1 13.8%
COc1ccc(C(=O)Oc2cc(N)n(S(=O)(=O)c3ccc(C)cc3)n2)cc1 10.8%
CCOC(=O)c1sc(N2C(=O)C(O)=C(C(=O)c3ccco3)C2c2cccc([N+](=O)[O-])c2)nc1C (stereo not given) -2.82%
Cc1cc(=O)oc2cc(OCCSCCN3CCCCC3)ccc12 -2.01%
Cc1cccc(-n2c(SCC(=O)N3CC(=O)Nc4ccccc43)nc3ccccc3c2=O)c1 11.6%
O=C1CCCC2=C1C1c3ccccc3C(=O)N1c1ccc(C(=O)c3ccccc3)cc1N2 (stereo not given) 42.6%
O=C(Nc1ccc(Cl)cn1)c1cnn2cccnc12 11.5%
CCOC(=O)C1(Cc2cccc(OC)c2)CCN(Cc2cccn2-c2ccccn2)CC1 -28.5%
CCn1cc(C(=O)NCc2ccc(C)cc2)c(=O)c2cc(S(=O)(=O)N(C)C)ccc21 -16.6%
COc1ccccc1N1CN(CCc2ccccc2)CNC1=S 4.13%
Cc1cc2nc3c(nc2cc1C)C(O)=C3O -7.09%
CC(=O)c1ccc(NC(=O)CN2CCN(CC(=O)Nc3ccc(C(C)=O)cc3)CC2)cc1 0.163%
Cc1ccc(OCC(=O)Oc2cccc(C)c2C)cc1 1.55%
O=C(Cn1ncc2c([nH]c3ccccc32)c1=O)NCC1CCN(Cc2ccc(F)cc2)CC1 -34.2%
CCc1ccc(C(=O)N2CCC(c3nc4ccccc4s3)CC2)cc1 -16.2%
COc1ccc(-c2sc(NC(=O)c3ccc(C)cc3)nc2-c2ccc([N+](=O)[O-])cc2)cc1 -13.4%
CC(C)[C@@H](CC(=O)N[C@@H]1CCCC[C@H]1C(=O)N[C@H](CC(=O)N[C@@H](CCC(=O)O)CC(=O)O)Cc1c[nH]c2ccccc12)NC(=O)C[C@H](CO)NC(=O)[C@@H]1CCCC[C@H]1N 1.72%
CCOC(=O)c1sc(/N=C/c2c(C)[nH]n(-c3ccccc3)c2=O)c(C#N)c1C 19.2%
CCN(CC)C(=O)Cn1cc(SCC(=O)NC)c2ccccc21 -2.51%
